From patent US20060084792A1 (UNITED STATES OF AMERICA AS REPRESENTED BY THE …, published 2006)
No constants are given. Whether binding was seen depends on the method and setting. Some results given as binding are weak or reduced against the parent protein; the word gives no strength.

Sequences of proteins named here, by UniProt entry; tags and fusion partners are left off. A change or cut given only in a name is not applied to a line headed by its entry.
UniProt P28488: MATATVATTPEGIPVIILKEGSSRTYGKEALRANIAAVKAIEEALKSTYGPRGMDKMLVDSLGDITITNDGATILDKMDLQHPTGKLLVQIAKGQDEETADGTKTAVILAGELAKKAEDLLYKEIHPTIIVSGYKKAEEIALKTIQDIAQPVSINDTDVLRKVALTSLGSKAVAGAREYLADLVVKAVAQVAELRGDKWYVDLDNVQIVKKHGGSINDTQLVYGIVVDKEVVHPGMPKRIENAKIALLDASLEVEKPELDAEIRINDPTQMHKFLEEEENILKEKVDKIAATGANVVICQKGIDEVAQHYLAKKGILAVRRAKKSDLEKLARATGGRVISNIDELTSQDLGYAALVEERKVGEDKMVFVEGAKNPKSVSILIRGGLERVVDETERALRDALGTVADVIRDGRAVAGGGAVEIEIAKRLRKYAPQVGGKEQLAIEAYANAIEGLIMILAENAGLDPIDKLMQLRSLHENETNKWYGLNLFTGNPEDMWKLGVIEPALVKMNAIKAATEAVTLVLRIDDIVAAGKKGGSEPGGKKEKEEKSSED

Target: wild-type TF55 beta subunit from Sulfolobus shibatae (Sulfolobus shibatae) (UniProt P28488)
Assay: non-denaturing gradient PAGE (FIG. 18); wild-type comparator, self-assembly of subunits

## wild-type TF55 beta subunit from Sulfolobus shibatae (from UniProt P28488 1-552)
  binding: binds
